In PubChem BioAssay AID1487 (National Center for Advancing Translational Sciences (NCATS), 2009):
In all, about 200,000 compounds went through this assay and about 25 (0.01%) were called active. This list was built around the results that the source calls inconclusive (neither active nor inactive); the mix of calls is not that of the screen. Calls follow the shape of the dose curve; as a rule, active = well fitted inhibition curve with a large enough effect in the signal ratio, with a control signal flat (not every such curve was filed as active); inconclusive = small, poorly fitted or top-dose-only effect, or effect the other way, or a change in a side signal; inactive = flat fitted curve, though single readings scatter; the % refers to the signal ratio. A potency beside an inconclusive call is a rough fit, not a confirmed value.

assay: qHTS Assay for Modulators of Lamin A Splicing; conditions: HeLa LMNA splicing GFP/RFP minigene ratio, 48 h; ratio change, negative = inhibition: at 46.1 µM (top of the series) unless noted
Method in brief: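 Read-out is the ratio of GFP to DsRed2 object intensity, acquired by 488 nm laser-scanning cytometry on HeLa lamin A-EGFP minigene reporter cells. Compound incubation 48 hrs at 37 °C in Opti-MEM with 2% FBS; DMSO 0.5% final.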
% is scaled to controls: 0 for no effect and ±100 for the full control effect; potency is read from the fitted curve at half-maximal effect.

Compound | ratio change, negative = inhibition | Potency
O=C1C2C3CCC(C3)C2C(=O)N1Cc1ccco1 (stereo not drawn) | inactive | –
CC1CN(Cc2csc(-c3ccc(Cl)cc3)n2)CC(C)O1 (stereo not drawn) | – | inconclusive: 0.0032 µM [rising, full curve, poor fit]
Cc1c(C(=O)O)cnc2c([N+](=O)[O-])cnn12 | inactive | –
CC(=O)OCC(=O)Nc1ccc(N=Nc2ccccc2)cc1 | inconclusive: -13% | –
Cc1ccc(NS(=O)(=O)c2ccc3c(c2)CC(C)N3C(=O)C2CCC2)cc1Cl (stereo not drawn) | – | inconclusive: 35.5 µM [falling, single point]
N#CC1=C(N)Oc2cc(N)ccc2C1c1cccnc1 (stereo not drawn) | inactive | –
CCc1ccc(S(=O)(=O)NCc2csc(-c3ccccc3)n2)s1 | inconclusive: -39.9% | –
COc1cc(S(=O)(=O)N2CCOCC2)ccc1NC(=O)COC(=O)CC12CC3CC(CC(C3)C1)C2 | inactive | –
CCN1CCN(CC(O)COc2ccc3c(c2)CCC3)CC1 (stereo not drawn) | inconclusive: 4.14% | –
Cc1nc2cnc(Nc3ccccc3)nc2n(C2CC2)c1=O | inactive | –
Cc1cccc(N2CC(C(=O)OCC(=O)c3ccc(OC(=O)c4cccs4)cc3)CC2=O)c1C (stereo not drawn) | inactive | –
CCCOc1ccc(CSCCNC(=S)Nc2ccccc2)cc1 | – | inconclusive: 35.5 µM [falling, single point]
COc1ccc(CC(=O)NCc2ccc3c(c2)CCN3C(=O)c2ccccc2)cc1OC | inactive | –
CCSC1=C(C#N)C2(CCCCC2)C(C#N)C(=O)N1 (stereo not drawn) | inconclusive: 15.6% | –
COc1cc(-c2cc(=O)c3c(O)c(OC)c(OC)c(OC)c3o2)cc(OC)c1OC | inconclusive: -35.1% | –
O=C(c1ccc2c(c1)CCCC2)N1CCN(c2nc3c(F)cccc3s2)CC1 | inconclusive: -20.5% [at 46 µM] | –
COc1ccc(C(=O)Nc2cnn(Cc3ccc(Cl)cc3)c2)cc1OC | inconclusive: -14.6% | –
CCc1cccc(NC(=O)c2cc3c(=O)n(Cc4ccc(OC)cc4)ccc3nc2C)c1 | inconclusive: -6.12% [at 46 µM] | –
Cn1cc(CC(=O)NCCN2CCOCC2)c2ccccc21 | – | inconclusive: 6.31 µM [activator, partial curve, poor fit]
COc1ccc(C(=O)c2ccccc2)c2c(O)ccc(C(=O)c3ccccc3)c12 | – | inconclusive: 2.82 µM [falling, full curve]
O=C(Nc1ccc(OC(=O)c2ccccc2)c(-c2nc3ccccc3s2)c1)c1ccccc1 | inactive | –
COc1cccc(NC(=O)C2CCC(CNS(=O)(=O)c3cccs3)CC2)c1 (stereo not drawn) | – | inconclusive: 1.41 µM [activator, partial curve]
C/C(=C\C(=O)C(F)(F)F)Nc1ccc(C)cc1 | inactive | –

Look-ups from the entries so far:
Value for Cc1c(C(=O)O)cnc2c([N+](=O)[O-])cnn12 under ratio change, negative = inhibition: inactive
Value for O=C1C2C3CCC(C3)C2C(=O)N1Cc1ccco1 (stereo not drawn) under ratio change, negative = inhibition: inactive
